Measurements: US20240002522A1 (INSERM INSTITUT NATIONAL DE LA SANTE ET DE LA RECHERCHE …, published 2024)
Residue numbers refer to the chain shown, from its start. These are yes or no findings as the source states them, for the method shown. Some binding calls cover weakened binding; strength is not graded here.

Key:
human CD25 [1] = target: T1, human CD25 (human, UniProt P01589 22-272); assay: flow cytometry (GeoMFI), 0.01 to 500 nM, HEK293 cells transfected with huCD25
T1 construct: In the functional assays it was native on T cells or SUDHL-1 cells; also called huCD25; hCD25
T1 sequence: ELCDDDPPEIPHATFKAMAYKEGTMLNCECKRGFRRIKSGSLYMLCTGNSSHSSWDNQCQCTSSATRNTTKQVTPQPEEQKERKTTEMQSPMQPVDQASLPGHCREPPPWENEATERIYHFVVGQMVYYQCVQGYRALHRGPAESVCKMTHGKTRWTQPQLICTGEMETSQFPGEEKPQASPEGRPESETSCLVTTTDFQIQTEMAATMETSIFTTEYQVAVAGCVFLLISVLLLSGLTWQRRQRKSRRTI

human CD25 [2] = target: T1, human CD25; assay: flow cytometry on HEK293 cells transiently transfected with huCD25, against HEK293 WT
human CD25 [3] = target: T1, human CD25; assay: flow cytometry on HEK293 cells transiently transfected with huCD25; 3-fold dilutions from 500 nM; detection with anti-human IgG (Fc specific) FITC

Measured: binding

B1: C01 (antibody, V domains shown)
VH: QVQLVESGGGVVQPGRSLRLSCAASGFTFSNHAMAWVRQAPGKGLEWVAVISYDGSNKYYADSVKGRFTISRDNSQNTLYLQMNSLRAEDTAVYYCTTGLNSGYDWGQGTLVTVSS
VL: DIQMTQSPSSLSASVGDRVTITCRASQSISSFLNWYQQKPGEAPRRLIYGTNSLQSGVPSRFSGSGSGTDYTLTISSLQPEDFATYYCQQYTSWPWTFGQGTKLEIK
binds: all assays above

B2: G01 (antibody, V domains shown)
VH: B1 VH
VL: B1 VL with I29V, E42K, R45K, T92N
binds: all assays above

B3: G02-2 (antibody, V domains shown)
VH: B1 VH with S75A, Q76K
VL: B1 VL with S30N, E42K, Y71F, T92N
binds: all assays above

B4: F03 (antibody, V domains shown)
VH: B1 VH with K58T, S75A, Q76K, N77S
VL: B1 VL with S28N, I29V, E42K, T92N
binds: all assays above

B5: D05 (antibody, V domains shown)
VH: B1 VH with Q76K, L100W
VL: B1 VL with I29V
binds: all assays above

B6: B07 (antibody, V domains shown)
VH: B1 VH
VL: B1 VL with S28N, S30N
binds: all assays above

B7: B12 (antibody, V domains shown)
VH: B1 VH with S56D, S75A, Q76K
VL: B1 VL with S30N
binds: all assays above

B8: H09 (antibody, V domains shown)
VH: B1 VH
VL: B1 VL with I29V, S31K, E42K, T92N
binds: all assays above

B9: G02 (antibody, V domains shown)
VH: B1 VH with S75A, Q76K, L100W
VL: B1 VL with I29V, S30N, F32Y, E42K, T92N
binds: all assays above

B10: E04 (antibody, V domains shown)
VH: B1 VH with S75A, Q76K, L100W
VL: B1 VL with F32Y, E42K, T92N
binds: all assays above

B11: D01 (antibody, V domains shown)
VH: B1 VH with A61R, S75A, N77S
VL: B1 VL with E42K, Y71F, T92N
binds: all assays above

B12: E04-2 (antibody, V domains shown)
VH: B1 VH with S75A, Q76K
VL: B1 VL with S28N, S30N, E42K, N52S, Y71F, T92N
binds: all assays above

B13: B05 (antibody, V domains shown)
VH: B1 VH with A61R, Q76K
VL: B1 VL with S28N, S30N, E42K, N52S, T92N
binds: all assays above
